Measurements taken from paper PMC12431657, “Discovery and mechanistic insights of dibenzoylmethane as a broad spectrum inhibitor of coronavirus” (PLOS Pathogens, 2025).
Read-outs that look alike come from different tables or passages of the source. About 95 (3%) of roughly 3,300 compounds showed an effect of 50% or more. The list shows a part of the results.

Test system: HCoV-229E
Set-up: species or system Huh-7; HTS, protection from HCoV-229E induced cell death, luminescent cell viability (CellCounting-Lite 2.0), inhibition rate
Conditions: 24 h post infection, 1 h compound pre-incubation, 10 µM, inhibitor

Structure (SMILES)	229E Inhibition rate [%]	229E Inhibition rate (229E Inhibition rate, 24 h) [%]
CCCCCCCCCCCCCCCc1cccc(O)c1C(=O)O [Anacardic Acid]	20.1	–
O=C(O)CCCCCC(=O)O [Pimelic acid]	40.5	–
C[C@H](CCC(=O)O)[C@H]1CC[C@H]2[C@@H]3C(=O)C[C@@H]4CC(=O)CC[C@]4(C)[C@H]3CC(=O)[C@]12C [Dehydrocholate (sodium)]	8.8	–
C[C@@H]1O[C@@H](O[C@H]2[C@H](O[C@H]3CC[C@@]4(C)[C@@H](CC[C@]5(C)[C@@H]4CC=C4[C@@H]6CC(C)(C)CC[C@]6(C(=O)O)CC[C@]45C)[C@]3(C)CO)OC[C@H](O)[C@@H]2O)[C@H](O)[C@H](O)[C@H]1O [alpha-Hederin]	2.9	–
CC[C@@H]1CN2CC[C@]3(C(=O)Nc4ccccc43)[C@@H]2C[C@@H]1/C(=C\OC)C(=O)OC [Corynoxine B]	0	–
C[C@@H](O)CO [(R)-(-)-1,2-Propanediol]	34.2	–
C[C@H]1[C@H](C)CC[C@]2(C)CC[C@]3(C)C(=CC[C@@H]4[C@@]5(C)CC[C@@H](O)[C@](C)(C(=O)O)[C@@H]5CC[C@]43C)[C@H]12 [β-Boswellic acid]	22.5	–
NCCP(=O)(O)O [(2-Aminoethyl)phosphonic acid]	11.2	–
CCCCCCCCCCC/C=C\CCCCC(=O)O [Petroselinic acid]	0	–
C[C@H]1C(=O)CC[C@@H]2[C@]1(C)CC[C@H]1[C@@]2(C)CC[C@@]2(C)[C@@H]3CC(C)(C)CC[C@]3(C)CC[C@]12C [Friedelin]	14	–
CCCCCCCC/C=C\CCCCCCCCCC(=O)O [Gondoic acid]	0	–
OCC(CO)N[C@H]1C[C@](O)(CO)[C@@H](O)[C@H](O)[C@H]1O [Voglibose]	9.7	–
C[C@@H]1O[C@@H](OC[C@H]2O[C@@H](Oc3c(-c4ccc(O)cc4)oc4cc(O)cc(O)c4c3=O)[C@H](O[C@@H]3O[C@H](CO)[C@H](O)[C@H](O)[C@H]3O)[C@@H](O)[C@@H]2O)[C@H](O)[C@H](O)[C@H]1O [Camelliaside A]	0	–
CC(C)=CCC[C@](C)(O[C@@H]1O[C@H](CO)[C@@H](O)[C@H](O)[C@H]1O)[C@H]1CC[C@]2(C)[C@@H]1[C@H](O)C[C@@H]1[C@@]3(C)CC[C@H](O[C@@H]4O[C@H](CO)[C@@H](O)[C@H](O)[C@H]4O[C@@H]4O[C@H](CO)[C@@H](O)[C@H](O)[C@H]4O)C(C)(C)[C@@H]3CC[C@]12C [Ginsenoside Rd]	13.9	–
O=c1ncnc2n([C@H]3O[C@@H](CO)[C@H](O)[C@@H]3O)[nH]cc1-2 (stereo in doubt) [Allopurinol riboside]	19.3	–
Cc1cc2nc3c(=O)[nH]c(=O)nc-3n(C[C@H](O)[C@H](O)[C@H](O)COP(=O)(O)O)c2cc1C [Riboflavin (phosphate sodium)]	8.2	–
COc1cc2c(cc1O)CC[n+]1cc3c(OC)c(OC)ccc3cc1-2 [Jatrorrhizine (hydroxide)]	–	11.3
O=C(O)c1cc(=O)c2ccccc2[nH]1 [Kynurenic acid]	21.5	–
O=C1c2ccc(O)cc2OCC1c1ccc(O)cc1 (stereo not drawn) [Dihydrodaidzein]	16.3	–
O=C(O)C(=O)Cc1ccccc1 [Phenylpyruvic acid]	24	–

In another format: entries from further up.
O=C(O)CCCCCC(=O)O [Pimelic acid]
  229E Inhibition rate [%]: 40.5
C[C@H](CCC(=O)O)[C@H]1CC[C@H]2[C@@H]3C(=O)C[C@@H]4CC(=O)CC[C@]4(C)[C@H]3CC(=O)[C@]12C [Dehydrocholate (sodium)]
  229E Inhibition rate [%]: 8.8
C[C@@H]1O[C@@H](O[C@H]2[C@H](O[C@H]3CC[C@@]4(C)[C@@H](CC[C@]5(C)[C@@H]4CC=C4[C@@H]6CC(C)(C)CC[C@]6(C(=O)O)CC[C@]45C)[C@]3(C)CO)OC[C@H](O)[C@@H]2O)[C@H](O)[C@H](O)[C@H]1O [alpha-Hederin]
  229E Inhibition rate [%]: 2.9

(cont.)

Structure (SMILES)	229E Inhibition rate [%]	229E Inhibition rate (229E Inhibition rate, 24 h) [%]
CCCC(C)C(=O)O (stereo not drawn) [2-Methylvaleric acid]	8.1	–
O=C(O)C(=O)CO [Hydroxypyruvic acid]	11.1	–
CNCC(=O)O [Sarcosine]	12.1	–
Cc1ccc(C(=O)O)cc1 [p-Toluic acid]	6.6	–
CC(=O)O[C@@H]1C[C@@]23C[C@@]24CC[C@H](O[C@@H]2OC[C@H](O)[C@H](O)[C@H]2O)C(C)(C)[C@@H]4CC[C@H]3[C@]2(C)[C@@H](O)[C@]34O[C@H](C[C@@H](C)[C@@H]3[C@@]12C)[C@@H](C(C)(C)O)O4 [Cimiracemoside D]	22	–
COc1cc(O)c2c(=O)c(OC)c(-c3ccc(O)c(OC)c3)oc2c1 [Pachypodol]	0	–
O=C1c2cccc(O)c2C(=O)c2c(O)cccc21 [Danthron]	0	–
O=C1C[C@@H](c2ccc(O)c(O)c2)Oc2c1ccc(O[C@@H]1O[C@H](CO)[C@@H](O)[C@H](O)[C@H]1O)c2O [Flavanomarein]	35.1	–
COc1ccc2c(c1)O[C@H]1c3ccc(O)cc3OC[C@@H]21 [Medicarpin]	12.1	–
COc1ccc2cc1Oc1ccc(cc1)C[C@H]1c3cc(c(OC)cc3CCN1C)Oc1c(O)c(OC)cc3c1[C@H](C2)N(C)CC3 [Fangchinoline]	11.1	–
CCOC(N)=O [Urethane]	9.7	–
OC[C@H]1O[C@@H](Oc2cc(O)cc(/C=C/c3ccc(O[C@@H]4O[C@H](CO)[C@@H](O)[C@H](O)[C@H]4O)cc3O)c2)[C@H](O)[C@@H](O)[C@@H]1O [Mulberroside A]	4.6	–
COc1ccc2c3c1O[C@H]1C[C@@H](O)C=C[C@@]31CCN(C)C2 [Galanthamine]	–	37.6
N[C@@H](Cc1cc(I)c(O)c(I)c1)C(=O)O [(S)-2-Amino-3-(4-hydroxy-3,5-diiodophenyl)propanoic acid dihydrate]	17.5	–
CN1C(C(=O)Nc2ccccn2)=C(O)c2sc(Cl)cc2S1(=O)=O [Lornoxicam]	9.3	–
C[C@H](O)C(=O)N[C@@H](Cc1ccccc1)C(=O)O [N-Lactoyl-Phenylalanine]	15.1	–
C[C@H](CC[C@@H](O)C(C)(C)O)[C@H]1CC[C@@]2(C)[C@@H]3CC=C4[C@@H](CC[C@H](O)C4(C)C)[C@]3(C)C(=O)C[C@]12C [Bryodulcosigenin]	12.5	–
COc1ccc(-c2cc(=O)c3c(OC)c(OC)c(OC)c(OC)c3o2)cc1 [Tangeretin]	9	–
O=C1Nc2ccccc2C1=O [Isatin]	0	–
